{"sequences": {"note": "Protein sequences, listed by entry. Tags and fused reporters are not part of them.", "UniProt P68363": "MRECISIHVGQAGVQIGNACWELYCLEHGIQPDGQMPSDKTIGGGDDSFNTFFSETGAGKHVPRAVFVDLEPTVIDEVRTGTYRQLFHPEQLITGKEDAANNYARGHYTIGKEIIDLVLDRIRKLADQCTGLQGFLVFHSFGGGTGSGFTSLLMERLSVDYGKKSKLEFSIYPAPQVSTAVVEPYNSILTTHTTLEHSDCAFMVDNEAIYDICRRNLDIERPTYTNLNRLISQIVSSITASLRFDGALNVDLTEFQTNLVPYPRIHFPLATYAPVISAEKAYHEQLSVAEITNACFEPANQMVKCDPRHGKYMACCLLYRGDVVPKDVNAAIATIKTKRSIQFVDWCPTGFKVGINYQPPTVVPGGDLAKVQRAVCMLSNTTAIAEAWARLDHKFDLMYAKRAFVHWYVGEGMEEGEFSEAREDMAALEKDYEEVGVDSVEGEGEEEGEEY"}, "source": "patent US20040028607A1", "binders": {"B1": {"name": "GFP-MIZ-1 (GFP fusion of Myc-interacting zinc finger 1, expressed from pEGFPMIZ-1) (protein, not shown: large carriers)", "chain": "MDFPQHSQHVLEQLNQQRQLGLLCDCTFVVDGVHFKAHKAVLAACSEYFKMLFVDQKDVVHLDISNAAGLGQMLEFMYTAKLSLSPENVDDVLAVATFLQMQDIITACHALKSLAEPATSPGGNAEALATEGGDKRAKEEKVATSTLSRLEQAGRSTPIGPSRDLKEERGGQAQSAASGAEQTEKADAPREPPPVELKPDPTSGMAAAEAEAALSESSEQEMEVEPARKGEEEQKEQEEQEEEGAGPAEVKEEGSQLENGEAPEENENEESAGTDSGQELGSEARGLRSGTYGDRTESKAYGSVIHKCEDCGKEFTHTGNFKRHIRIHTGEKPFSCRECSKAFSDPAACKAHEKTHSPLKPYGCEECGKSYRLISLLNLHKKRHSGEARYRCEDCGKLFTTSGNLKRHQLVHSGEKPYQCDYCGRSFSDPTSKMRHLETHDTDKEHKCPHCDKKFNQVGNLKAHLKIHIADGPLKCRECGKQFTTSGNLKRHLRIHSGEKPYVCIHCQRQFADPGALQRHVRIHTGEKPCQCVMCGKAFTQASSLIAHVRQHTGEKPYVCERCGKRFVQSSQLANHIRHHDNIRPHKCSVCSKAFVNVGDLSKHIIIHTGEKPYLCDKCGRGFNRVDNLRSHVKTVHQGKAGIKILEPEEGSEVSVVTVDDMVTLATEALAATAVTQLTVVPVGAAVTADETEVLKAEISKAVKQVQEEDPNTHILYACDSCGDKFLDANSLAQHVRIHTAQALVMFQTDADFYQQYGPGGTWPAGQVLQAGELVFRPRDGAEGQPALAETSPTAPECPPPAE"}}, "molecular_target": "alpha-tubulin acetylated at lysine-40 (endogenous, in HeLa cells or HEK 293T cell lysate) (human (human cell lines)) (UniProt P68363)", "assay": "confocal microscopy colocalisation in TSA-treated cells cotransfected with GFP-MIZ-1 and empty FLAG vector", "note": "Results are given in words; binding and its absence hold for the method and conditions named. Some entries that bind do so weakly or less than the wild type. Sequences can lack the tags named with a protein.", "data": [{"binder": "B1", "values": [{"measurement": "binding", "result": "binds"}]}]}
